Structures can show the parent of a compound that is named as a salt. ± gives the standard deviation of the averaged measurements. The list shows a part of the results. Part of the spread comes from offsets between plates or batches.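 The cells are a mouse kidney inner medullary collecting duct line, silenced either for the ciliary gene Rpgrip1l or with a non-targeting control siRNA.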
system: mIMCD3; assay: robust z score of cell number vs plate controls; higher = more cells (less cytotoxic); conditions: 10 µM; 48 h; siRNA: siRpgrip1l

Row | SMILES | robust z score of cell number
1 | CN(Cc1cnc2nc(N)nc(N)c2n1)c1ccc(C(=O)N[C@@H](CCC(=O)O)C(=O)O)cc1 [Methotrexate] | -42.5 ± 36
2 | O=C(NCCCCN1CCN(c2cccc(Cl)c2Cl)CC1)c1ccc2c(c1)Cc1ccccc1-2 | -14.6 ± 6
3 | CCCC[P+](CCCC)(CCCC)Cc1ccc(NC(=O)C(Cc2ccc3ccccc3c2)NC(=NC2CCCCC2)NC2CCCCC2)cc1 (stereo not drawn) | -54.7 ± 42
4 | O=c1cc(N2CCNCC2)oc2c(-c3ccccc3)cccc12 | -8.71 ± 6.5
5 | COc1ccccc1N1CCN(CCCCNC(=O)c2ccc(-c3ccc(C(C)=O)cc3)cc2)CC1 | -19.9 ± 14
6 | O=C(NCCCN1CCCCCC1)C(c1ccccc1)C1CCCCC1 (stereo not drawn) | -17.5 ± 16
7 | O=C(Nc1ccncc1)c1cc([N+](=O)[O-])ccc1Cl | -10 ± 6.4
8 | O=C1CC2(CCCC2)CC(=O)N1CCNCC1COc2ccccc2O1 (stereo not drawn) | -52 ± 45
9 | CC(CCCCC(=O)Nc1ccc(C(F)(F)F)cc1)NCCc1cnc[nH]1 (stereo not drawn) [HTMT dimaleate] | -10.6 ± 15
10 | Cc1nnc(-c2ccc3occ(-c4ccc([S+](C)[O-])cc4)c3c2)o1 (stereo not drawn) | 6.23 ± 7.7
11 | CCOC(=O)[C@H](CCc1ccccc1)N[C@H]1CCc2ccccc2N(CC(=O)O)C1=O [Benazepril hydrochloride] | -4.85 ± 1.3
12 | O=c1[nH]c2cc(Cl)ccc2c(O)c1-c1cccc(Oc2ccccc2)c1 | -7.2 ± 1.2
13 | COc1ccccc1C1(O)CCN(CCCn2c3ccccc3c3ccccc32)CC1 [NNC 05-2090 hydrochloride] | -31.7 ± 30
14 | NS(=O)(=O)Cc1noc2ccccc12 [Zonisamide] | -4.84 ± 0.79
15 | COc1cc(/C=C(\C#N)C(N)=O)cc(CSc2nc3ccccc3s2)c1O | -36.1 ± 34
16 | COc1ccc(C2CC(c3c(O)cc(C)oc3=O)=NCCS2)c(OC)c1 (stereo not drawn) | -26.9 ± 24
17 | O=C(O)C1CCCN(CCC=C(c2ccccc2)c2ccccc2)C1 (stereo not drawn) | -7.31 ± 2.5
18 | CCS(=O)(=O)N1CCC[C@@H]2CN3CCc4cc(OC)ccc4[C@@H]3C[C@@H]21 | -6.45 ± 1.2
19 | O=C(COc1cccc2c(=O)[nH]ccc12)c1ccccc1 | -5.58 ± 2.1

Part of the list above in order of heavy-atom count, low to high:
Row | SMILES | robust z score of cell number
7 | O=C(Nc1ccncc1)c1cc([N+](=O)[O-])ccc1Cl | -10 ± 6.4
6 | O=C(NCCCN1CCCCCC1)C(c1ccccc1)C1CCCCC1 (stereo not drawn) | -17.5 ± 16
15 | COc1cc(/C=C(\C#N)C(N)=O)cc(CSc2nc3ccccc3s2)c1O | -36.1 ± 34

(further entries)

Row | SMILES | robust z score of cell number
20 | CCCCCCC(=O)OC1CC(C)(C)NC(C)(C)C1 [TMPH hydrochloride] | -12.6 ± 6.1
21 | C=C1C(=O)O[C@@H]2/C=C(\C)CC/C=C(\C)CC[C@@H]12 [Costunolide] | -7.81 ± 1.8
22 | CCN(CC)CCOC(=O)C1(c2ccc([N+](=O)[O-])cc2)CCCC1 [Nitrocaramiphen hydrochloride] | -50.7 ± 30
23 | CC(Cc1ccc(O)c(O)c1)(NN)C(=O)O [(S)-(-)-Carbidopa] | -0.664 ± 1.7
24 | CS(=O)(=O)c1ccc(-c2cc(Br)sc2-c2ccc(F)cc2)cc1 | -180 ± 200
25 | CC(=O)O[C@@H]1C[C@H]2C(C)(C)C(=O)C=C[C@]2(C)[C@H]2CC[C@@]3(C)[C@H](c4ccoc4)OC(=O)[C@H]4O[C@]43[C@@]21C [Gedunin] | -12 ± 12
26 | COc1ccc2[nH]c(-c3ccccc3)c(CCNC(C)=O)c2c1 [2-Phenylmelatonin] | -4.87 ± 2.9
27 | Nc1nc(-c2ccc(Cl)c(Cl)c2)c(-c2ccncc2)s1 [CGH 2466 dihydrochloride] | -13.1 ± 7
28 | COc1ccc(CCCOC(Cn2ccnc2)c2ccc(OC)cc2)cc1 (stereo not drawn) | -51.1 ± 40
29 | C[C@H](NC(=O)/C(C#N)=C/c1ccc(O)c(O)c1)c1ccccc1 [Tyrphostin B44, (+) enantiomer] | -35.2 ± 32
30 | CCCCC#Cc1nc(NC)c2ncn([C@@H]3O[C@H](CO)[C@@H](O)[C@H]3O)c2n1 | -8.55 ± 10
31 | CCOc1cc(CC(=O)N[C@@H](CC(C)C)c2ccccc2N2CCCCC2)ccc1C(=O)O [Repaglinide] | -3.92 ± 0.26
32 | O=C1NC(=O)c2c1c(-c1ccccc1)cc1[nH]c3ccc(O)cc3c21 | -11.4 ± 9.2
33 | C1COC(NC(C2CC2)C2CC2)=N1 [Rilmenidine hemifumarate] | -0.977 ± 2.8
34 | COc1ccc(OC)c2c(=S)c3ccccc3[nH]c12 | -3.22 ± 0.7
35 | CNCCC(Oc1ccc(C(F)(F)F)cc1)c1ccccc1 (stereo not drawn) [Fluoxetine hydrochloride] | -27.7 ± 3.7
36 | NS(=O)(=O)c1nn2cc(-c3ccccc3)nc2s1 | -5.56 ± 6
37 | Oc1c2ccccc2c2c3c(cccc13)N=N2 | -147 ± 160
38 | COCCNC(=O)COc1ccc(OCCNC[C@H](O)COc2ccccc2)cc1 [ZD 7114 hydrochloride] | -3.29 ± 2.5
